Binding data for one molecule are collected here from paper PMC10547799.

Results are given in words; binding and its absence hold for the method and conditions named. Binding seen in cells or lysates may run through a third protein. Binding can be weak; no strength is given. Where a sequence is shown, tags or fusion partners need not be part of it.

The target of the test is C-terminal fragment of PLK1 containing a PBD domain, Flag-tagged (human). The test can be described thus: co-IP; HEK293T co-transfected with UHRF1-His and Flag-tagged PLK1 (full length or truncated); IP with anti-Flag or anti-His; RIPA extracts, antibody 4 °C 12 h, protein A/G magnetic beads; western blot. (In western blotting, separated proteins are transferred to a membrane and probed.)

B1: UHRF1-His (protein, UniProt Q96T88 1-793)
chain: MWIQVRTMDGRQTHTVDSLSRLTKVEELRRKIQELFHVEPGLQRLFYRGKQMEDGHTLFDYEVRLNDTIQLLVRQSLVLPHSTKERDSELSDTDSGCCLGQSESDKSSTHGEAAAETDSRPADEDMWDETELGLYKVNEYVDARDTNMGAWFEAQVVRVTRKAPSRDEPCSSTSRPALEEDVIYHVKYDDYPENGVVQMNSRDVRARARTIIKWQDLEVGQVVMLNYNPDNPKERGFWYDAEISRKRETRTARELYANVVLGDDSLNDCRIIFVDEVFKIERPGEGSPMVDNPMRRKSGPSCKHCKDDVNRLCRVCACHLCGGRQDPDKQLMCDECDMAFHIYCLDPPLSSVPSEDEWYCPECRNDASEVVLAGERLRESKKKAKMASATSSSQRDWGKGMACVGRTKECTIVPSNHYGPIPGIPVGTMWRFRVQVSESGVHRPHVAGIHGRSNDGAYSLVLAGGYEDDVDHGNFFTYTGSGGRDLSGNKRTAEQSCDQKLTNTNRALALNCFAPINDQEGAEAKDWRSGKPVRVVRNVKGGKNSKYAPAEGNRYDGIYKVVKYWPEKGKSGFLVWRYLLRRDDDEPGPWTKEGKDRIKKLGLTMQYPEGYLEALANREREKENSKREEEEQQEGGFASPRTGKGKWKRKSAGGGPSRAGSPRRTSKKTKVEPYSLTAQQSSLIREDKSNAKLWNEVLASLKDRPASGSPFQLFLSKVEETFQCICCQELVFRPITTVCQHNVCKDCLDRSFRAQVFSCPACRYDLGRSYAMQVNQPLQTVLNQLFPGYGNGR
As for B1, the binding result is given as “binds”.
